{
  "source": "paper PMC7537955",
  "target": "T1, Flag-IKKi (UniProt Q14164)",
  "T1 sequence": "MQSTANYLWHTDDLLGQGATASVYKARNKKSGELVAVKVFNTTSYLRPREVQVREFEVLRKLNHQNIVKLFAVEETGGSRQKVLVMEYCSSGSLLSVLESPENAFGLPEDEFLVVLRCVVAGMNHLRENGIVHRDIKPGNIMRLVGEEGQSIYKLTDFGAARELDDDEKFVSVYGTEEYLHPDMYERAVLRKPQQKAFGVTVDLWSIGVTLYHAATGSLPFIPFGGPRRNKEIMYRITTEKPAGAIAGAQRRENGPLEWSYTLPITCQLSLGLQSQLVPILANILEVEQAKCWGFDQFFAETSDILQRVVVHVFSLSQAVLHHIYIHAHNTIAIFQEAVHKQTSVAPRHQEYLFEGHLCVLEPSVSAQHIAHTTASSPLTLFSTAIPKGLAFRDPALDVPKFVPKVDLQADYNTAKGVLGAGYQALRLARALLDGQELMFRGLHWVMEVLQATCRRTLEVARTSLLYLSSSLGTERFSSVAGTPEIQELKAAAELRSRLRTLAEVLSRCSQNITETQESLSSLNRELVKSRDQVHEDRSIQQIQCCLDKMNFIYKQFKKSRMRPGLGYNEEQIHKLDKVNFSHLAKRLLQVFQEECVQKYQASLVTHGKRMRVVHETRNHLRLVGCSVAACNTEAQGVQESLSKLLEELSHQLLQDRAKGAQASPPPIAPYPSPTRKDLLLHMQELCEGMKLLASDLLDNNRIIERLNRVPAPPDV",
  "assay": "co-IP",
  "note": "These are yes or no findings as the source states them, for the method shown. Binding seen in cells or lysates may run through a third protein. Sequences can lack the tags named with a protein.",
  "data": [
    {"substance": "SARS-CoV-2 main protease (HA-M^pro) (enzyme)", "values": [
      {"measurement": "binding", "result": "no binding"}
    ]}
  ]
}
